Patent publication US4704402A, “Method of treating sickle cell anemia” (University of Pittsburgh, priority 1983, dated 1987)
At least one read-out could not be matched to a standard name with certainty.

System: sickle hemoglobin (HbS)
Assay: hemoglobin solubility test (Hofrichter et al. assay): deoxygenated sickle hemoglobin, ultracentrifugation, soluble HbS in supernatant
Format: biochemical
Settings: deoxygenated with dithionite, about 150,000×g, about 2 1/2 hours, about 35° C., average HbS around 3.7 mM

O=C(O)COc1ccc(Cl)cc1 [II, p-chlorophenoxyacetic acid]
ratio of the HbS solubility with the particular drug to HbS solubility with no drug (average ratio) (drug conc. 5 mM): 1.044 | ratio of the HbS solubility with the particular drug to HbS solubility with no drug (average ratio) (drug conc. 10 mM): 1.077 | ratio of the HbS solubility with the particular drug to HbS solubility with no drug (average ratio) (drug conc. 20 mM): 1.162 | ratio of the HbS solubility with the particular drug to HbS solubility with no drug (average ratio) (drug conc. 40 mM): 1.276
